The target of this test is T1, α-1,4-galactosyltransferase (A4GALT) with an N-terminal triple FLAG tag (human) (UniProt Q9NPC4).
T1 sequence: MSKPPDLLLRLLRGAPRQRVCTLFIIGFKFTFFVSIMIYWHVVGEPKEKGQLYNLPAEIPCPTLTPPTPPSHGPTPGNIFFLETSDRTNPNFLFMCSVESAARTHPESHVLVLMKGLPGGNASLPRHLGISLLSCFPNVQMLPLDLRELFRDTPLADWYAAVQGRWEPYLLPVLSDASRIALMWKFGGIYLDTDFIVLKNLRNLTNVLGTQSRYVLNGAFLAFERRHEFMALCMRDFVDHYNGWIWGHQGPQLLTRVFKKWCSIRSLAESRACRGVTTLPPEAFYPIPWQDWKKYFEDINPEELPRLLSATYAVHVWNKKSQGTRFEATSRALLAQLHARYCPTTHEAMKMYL
The test can be described thus: co-IP.

No constants are given. Whether binding was seen depends on the method and setting. Binding seen in cells or lysates may run through a third protein. Some entries that bind do so weakly or less than the wild type. Tags and fused reporters may be left off the sequences shown.

One molecule from article PMC6258472 can be followed below.

B1: lysosomal-associated protein transmembrane 4 beta (LAPTM4B) with a C-terminal triple HA tag (protein, UniProt Q86VI4-2 1-226)
chain: MKMVAPWTRFYSNSCCLCCHVRTGTILLGVWYLIINAVVLLILLSALADPDQYNFSSSELGGDFEFMDDANMCIAIAISLLMILICAMATYGAYKQRAAWIIPFFCYQIFDFALNMLVAITVLIYPNSIQEYIRQLPPNFPYRDDVMSVNPTCLVLIILLFISIILTFKGYLISCVWNCYRYINGRNSSDVLVYVTSNDTTVLLPPYDDATVNGAAKEPPPPYVSA
In the case of B1, the binding entry is “binds”.
